Consider six molecules from US20250206834A1.

B1: VV02-1LP-263 huNb_1_2 (Fc fusion, not shown: a dimerising Fc or GST)
VHH: EVQLLESGGGLVQPGGSLRLSCAASGFTFSSSAMSWARQAPGKGLEWVSGIYSGGSTYYTESVKDRFTISRDNSKNTVYLQMNSLKPEDTAVYYCATWGTLRFGVWAEYDHWGQGTLVTVSS
B2: VV02-1LP-263 huNb_3_3 (Fc fusion, not shown: a dimerising Fc or GST; small tags and cut ends)
VHH: B1 VHH with E1Q, L5V, L45F, S74A, T77S, L117Q
B3: VV02-1LP-263 huNb_2_2 (Fc fusion, not shown: a dimerising Fc or GST; small tags and cut ends)
VHH: B1 VHH with L5V, S74A, V78L, K86R
B4: VV02-1LP-263 huNb_2_3 (Fc fusion, not shown: a dimerising Fc or GST; small tags and cut ends)
VHH: B1 VHH with L5V, L45F, S74A
B5: VV02-1LP-263 huNb_3_2 (Fc fusion, not shown: a dimerising Fc or GST; small tags and cut ends)
VHH: B1 VHH with E1Q, L5V, Q13K, L45F, S74A, T77S, V78L, K86R, L117Q
B6: VV02-1LP-263 huNb_1_3 (Fc fusion, not shown: a dimerising Fc or GST; small tags and cut ends)
VHH: B1 VHH with A40T, L45F, L117Q

Positions count from the first letter of the chain named. Results are given in words; binding and its absence hold for the method and conditions named. Binding calls can cover weak binding; strength is not graded here.

This experiment has as its target cynomolgus 4-1BB (cynomolgus). Nature of the experiment: flow cytometry, CHO-K1 cells overexpressing cynomolgus 4-1BB. A general note: A flow cytometer gives signals particle by particle.
Turning to B1, the binding result is recorded as “binds”. The result for B2 reads “binds”; that for B3, “binds”; that for B4, “binds”. As to B5, the binding entry is given as “binds”. Next, B6: “binds”.
